At least one compound was matched to its structure with a doubt left.
Tests used:
BMDM [1] = experiment: Cytokine secretion by LPS-stimulated BMDM (ELISA); assay type: cell-based, mouse; set-up: dose or concentration left out as unconfirmed; conditions: BMDM pretreated with SB202190 or SP600125 for 16 h
Source text: Paired antibodies (capture and detection) and standard recombinant mouse IL-1β (R&D Systems), and TNF and IL-6 (eBioscience) were used to determine mouse cytokine concentrations according to manufacturer's instructions.

BMDM [2] = experiment: Q-PCR quantitation of cytokine mRNAs in LPS-stimulated BMDM; assay type: cell-based, mouse; set-up: dose or concentration left out as unconfirmed; conditions: BMDM pretreated with SB202190 or SP600125 for 16 h
Protocol: RNA was extracted using AllPrep DNA/RNA Mini kit, and cDNA was synthesized using SuperScript™ VILO™ cDNA Synthesis Kit. mRNA expression was determined by QPCR in a CFX96 thermal cycler (Biorad) as described (Zhong et al., 2016). Data are presented in arbitrary units and calculated by the 2^(−ΔΔCT) method. Primer sequences were obtained from the NIH qPrimerDepot (http://mouseprimerdepot.nci.nih.gov) and provided by Integrated DNA technologies.

Structure (SMILES): Oc1c2ccccc2c2c3c(cccc13)N=N2 [SP600125]
- IL-6 secretion (BMDM [1]): blocked
- Il6 mRNA induction (BMDM [2]): blocked

From patent US12642780B2, “Methods and compositions to treat and prevent viral infections and acute respiratory distress syndrome” (priority 2020, dated 2026)
